PubChem BioAssay AID1508600 (Functional Genomics Laboratory (NCATS/FGL), 2020)
The campaign covered roughly 53,000 sequences. About 3,700 (7%) were called active.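 How the source made its calls: active means gene knockdowns whose robust z-score for IL-1 alpha signal is at least 2 or at most -2, so actives lie on both sides; inactive means the rest.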 The list shows a part of the results.

test: Components of the Cytosolic LPS Sensing Pathway: Gene Identification via Genome-wide siRNA Screen; conditions: RAW264.7 macrophages, IL-1a HTRF, actives lie on both sides, screened at 100 nM (by protocol), cells primed 5 h with Pam3CSK4 first;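 further: robust z of the log signal after scaling to non-targeting control siRNA wells of the plate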
Method in brief: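 Mouse macrophage line RAW264.7 is transfected with siRNA (100 nM final), grown 48h, primed with TLR ligand Pam3CSK4 5 h and given intracellular LipidA 24 h. IL-1a in supernatant is read by HTRF and viability by luminescence.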

| Sequence | z-score |
| --- | --- |
| UUAAGCCGCUUUUGAAGCUTT against Olfr1200 | inactive: 0.812 |
| GGAAACUGGAAACAAAACATT against Nat10 | inactive: 0.52 |
| GGAUCAUGCAGACAUGCUGTT against Ggcx | inactive: -0.278 |
| GCAGAUGACCAUUGGUUAATT against 2610301B20Rik | inactive: 0.979 |
| GGUACGGACCCACAUUCAATT against Wscd2 | inactive: 1.47 |
| GCCCUUUGGAUAACAGUGATT against Sufu | inactive: -0.13 |
| GGAGAUUAUCACAACUAUUTT against Sash3 | inactive: 0.845 |
| GGUUGGAGUUGAUUUUAAUTT against Zmym1 | inactive: -0.189 |
| CCUAGAUUCUGAAUUCGAATT against Pdzd8 | inactive: -1.09 |
| GGAGAUCUGUGAUGAGGUGTT against Nudt22 | active: 2.07 |
| GCAGUCACUAAAUUGGAAATT against Eif3j1 | inactive: 1.36 |
| GGUUACCUGAGGUCAGUAGTT against Irgm1 | inactive: -1.54 |
| GGUCCUGAACCAGUUAGAGTT against Myo19 | inactive: 0.159 |
| GUUUGAGGACUUGGAGGUGTT against Znrf4 | inactive: 1.34 |
| GGACAAUGUGCAUUCUCACTT against Tada1 | inactive: -0.682 |
| GGUGCUGAUGGGAGAUAGUTT against 1700010H22Rik | inactive: -0.851 |
| GAAGAUCCACUUCAUCGCCTT against Psmb10 | inactive: 1.24 |
| GGAAUAAGGACAUAAAGAATT against Olfr248 | inactive: -1.25 |
| GGAAUACGAAGAGAUUAUATT against Zw10 | inactive: 0.65 |
| CCACUUAAAAUUCAUUCCUTT against Arl6ip1 | inactive: -0.21 |
| GGAACUUAUCCUUCUUAGATT against Olfr713 | inactive: 0.259 |
| GGUCCCAGAAAGUAGGCAUTT against Prss22 | inactive: 0.179 |
| CCUGCGCUUCUGACUAUCUTT against Dcbld1 | inactive: 0.18 |

Some of the entries so far, comma-delimited:
Sequence,z-score
GGAAACUGGAAACAAAACATT against Nat10,inactive: 0.52
GGAUCAUGCAGACAUGCUGTT against Ggcx,inactive: -0.278
GCAGAUGACCAUUGGUUAATT against 2610301B20Rik,inactive: 0.979
GGUACGGACCCACAUUCAATT against Wscd2,inactive: 1.47
GCCCUUUGGAUAACAGUGATT against Sufu,inactive: -0.13
GGAGAUUAUCACAACUAUUTT against Sash3,inactive: 0.845
GGUUGGAGUUGAUUUUAAUTT against Zmym1,inactive: -0.189
CCUAGAUUCUGAAUUCGAATT against Pdzd8,inactive: -1.09
GGAGAUCUGUGAUGAGGUGTT against Nudt22,active: 2.07
GCAGUCACUAAAUUGGAAATT against Eif3j1,inactive: 1.36
GGUUACCUGAGGUCAGUAGTT against Irgm1,inactive: -1.54
GGUCCUGAACCAGUUAGAGTT against Myo19,inactive: 0.159
GUUUGAGGACUUGGAGGUGTT against Znrf4,inactive: 1.34
GGACAAUGUGCAUUCUCACTT against Tada1,inactive: -0.682
GGUGCUGAUGGGAGAUAGUTT against 1700010H22Rik,inactive: -0.851
GAAGAUCCACUUCAUCGCCTT against Psmb10,inactive: 1.24
GGAAUAAGGACAUAAAGAATT against Olfr248,inactive: -1.25
GGAAUACGAAGAGAUUAUATT against Zw10,inactive: 0.65
CCACUUAAAAUUCAUUCCUTT against Arl6ip1,inactive: -0.21
GGAACUUAUCCUUCUUAGATT against Olfr713,inactive: 0.259
GGUCCCAGAAAGUAGGCAUTT against Prss22,inactive: 0.179

Continued:

| Sequence | z-score |
| --- | --- |
| CCCUUGCUAGUCCUUCUAUTT against Bora | inactive: -0.65 |
| GGUAAAUGAGAUCAACUUCTT against Dvl3 | inactive: -0.225 |
| CCAUAUGUGCUCACCUUUATT against Marveld2 | inactive: -0.641 |
| AUCGUGUUUGCUGUAUUUGTT against Olfr1258 | inactive: 0.33 |
| GGUAGUCUCUGCCACCAAUTT against Mrps11 | inactive: 0.356 |
| GCACAGUGGUAAUUCUUUATT against Snapc3 | inactive: 0.026 |
| CGGAGUCACGCACAACUUCTT against Arsg | inactive: -0.132 |
| GGUCGUGUUCGAGCAAACCTT against Tpi1 | inactive: -0.725 |
| CGUGUAGAUUACAAGAAUGTT against Mrps18c | inactive: 1.97 |
| GGCUUUAAGGCUAGCAGUUTT against Pex11a | inactive: -0.777 |
| GGAAUUUCAAAGAGACAAATT against Cyfip1 | inactive: -0.423 |
| CGCAUUUCGAAUAAAGACATT against Mettl22 | inactive: -0.546 |
| GCGUGAUCAUUGAUGUGGATT against Slc5a7 | inactive: 0.364 |
| GGGUCCAGUUUAAGACAUATT against Lypla2 | inactive: 0.0279 |
| GCAACUCAAUGACCUGAAATT against Ifnab | inactive: -1.83 |
| GCGAAUAAACCACUUGUUGTT against Pum2 | inactive: 0.184 |
| CGCCAGAAAGCUUCUAUGATT against Gucy2c | inactive: -0.972 |
| GGCUGAGAAGACUUUCAGUTT against Trappc4 | inactive: 0.36 |
| GCAUCAAAUUUUGAUAAGCTT against Wapl | inactive: -0.277 |
| GCUAUCGGACUGUGUGCUGTT against Rpl41 | inactive: -0.243 |
| GGAGAUGAAGCUCUGGAUATT against Spock2 | inactive: 0.132 |
| GGACGAAAAGAAGUGUUUCTT against Lamb2 | inactive: -0.103 |
| GGAAAUGUUUACCUGCCAUTT against Zfp512 | active: 2.32 |

Another view of some results above:
Sequence	z-score
GGAAUUUCAAAGAGACAAATT against Cyfip1	inactive: -0.423
CGCAUUUCGAAUAAAGACATT against Mettl22	inactive: -0.546

Continued:

| Sequence | z-score |
| --- | --- |
| GGUAAAAAGUACAAGUGGGTT against Slc17a5 | inactive: -0.909 |
| GCCCGGUCCUUUACUACAUTT against Sdk1 | inactive: 0.595 |
| GGUUUUGAGUGAGAAAUGGTT against Plekhb2 | inactive: -0.414 |
| GGUUCAGAUGGGAAAAAGGTT against Khdrbs2 | active: -2.41 |
| GCAGAUGUAAAUAGCAAAATT against Apc | inactive: 0.955 |
| GAAAACCAGCAUAAAGUCUTT against Lcorl | inactive: 1.13 |
| GGCAUUGGAAUAAAAUUUGTT against Rfk | inactive: 0.267 |
| GGAACCUAUUGCUGUUUUATT against Map2k3 | inactive: -0.756 |
| GGAGGAGAGGUACAAGAUGTT against Pcyt2 | inactive: -0.804 |
| GGAUCUACGUAGCAUUUCATT against Mis12 | inactive: 0.237 |
| GGGAUUUGUUACCCUCCUCTT against B9d1 | inactive: 0.267 |
| GGCCAGUUUGACAUUCCUGTT against Mdh1b | inactive: 0.000172 |
| GGACUUCAAAGAUAACAACTT against Timm44 | inactive: 1.52 |
| GGACAUGUGUAAAUAAUCATT against En2 | active: 3.4 |
| CCCAUCUCCUCGAAUAAAUTT against Mtch1 | inactive: 0.748 |
| GGAAAUGUGACCACAAAGATT against Tas2r120 | inactive: -0.772 |
| GGGUUGCCUACUGCAUUAUTT against Cbx2 | inactive: 0.0297 |
| GGAAAUCAUUAGCACCUAGTT against Sox13 | inactive: 1.16 |
| GCUGCUACGUUCUUGUAAATT against Pmp2 | inactive: 0.136 |
| GGAUUUGCAAAGCCCAGUCTT against Zfp934 | inactive: -0.214 |
| GGAACCAUGAAAUAAAUGUTT against Acad8 | inactive: 0.684 |
| GCAGCUAGAUAAUUAACUATT against Atp10b | inactive: 0.48 |
